# Results: the supplement of paper PMC3334620
# In all, about 33,000 sequences were measured (“E-score (-0.5 to 0.5)”: median about -0.016, highest 2% from about 0.3 on). This is one part of the list.
# Target: T1, Yer184c (UniProt P39961)
# T1 sequence: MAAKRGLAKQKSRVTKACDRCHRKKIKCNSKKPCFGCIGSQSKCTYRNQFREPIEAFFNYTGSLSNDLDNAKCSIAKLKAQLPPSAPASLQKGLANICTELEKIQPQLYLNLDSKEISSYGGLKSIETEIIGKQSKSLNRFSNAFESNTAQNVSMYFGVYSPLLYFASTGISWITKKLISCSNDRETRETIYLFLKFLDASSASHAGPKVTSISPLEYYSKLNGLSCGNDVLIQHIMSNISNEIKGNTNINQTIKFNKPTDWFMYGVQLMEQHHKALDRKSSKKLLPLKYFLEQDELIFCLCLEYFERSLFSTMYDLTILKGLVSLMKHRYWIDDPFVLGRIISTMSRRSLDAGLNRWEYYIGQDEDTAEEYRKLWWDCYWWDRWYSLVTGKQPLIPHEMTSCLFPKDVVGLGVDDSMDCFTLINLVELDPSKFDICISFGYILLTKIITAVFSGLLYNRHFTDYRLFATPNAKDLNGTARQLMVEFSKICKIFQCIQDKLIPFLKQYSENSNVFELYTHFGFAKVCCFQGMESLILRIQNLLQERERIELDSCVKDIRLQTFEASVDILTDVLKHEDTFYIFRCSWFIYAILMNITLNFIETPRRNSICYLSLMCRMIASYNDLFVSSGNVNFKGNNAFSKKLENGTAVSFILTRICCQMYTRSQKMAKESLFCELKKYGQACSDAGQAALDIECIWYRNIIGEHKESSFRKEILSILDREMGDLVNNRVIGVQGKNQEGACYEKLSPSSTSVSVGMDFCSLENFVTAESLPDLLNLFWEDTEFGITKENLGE
# Experiment: PBM E-score (8-mer binding enrichment) (E-score (-0.5 to 0.5)); higher = stronger / more preferred TF binding
# Details: protein concentration: 100 nM; construct: GST-full length
# Method in brief: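 Universal all-10-mer Agilent arrays, double-stranded by primer extension on fresh or once-stripped slides, were probed with about 100-200 nM GST-tagged yeast transcription factors made by PURExpress. Fluorescent anti-GST detected bound protein, and masliner normalised the scans. E-scores from the Universal PBM Analysis Suite were given to each ungapped eight-base word pooled with its reverse complement.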
row,Sequence,PBM E-score
1,AGTCCGAG,0.268
2,ACAACCAT,0.128
3,AGCACTGG,-0.267
4,CCACTGAG,-0.266
5,GATCCAAA,0.196
6,TACTACTA,0.137
7,AATGTCCA,-0.132
8,CAAATTCA,-0.134
9,AACAAGCT,0.0739
10,GTTTGGGA,-0.00334
11,ACACCACT,0.0196
12,CCACCCGC,-0.138
13,GTAATTGA,0.168
14,GATTTACC,0.0984
15,GACCGGGA,0.0108
16,ATGGCAAT,-0.0949
17,CTAGCTAC,-0.237
18,AAGAGGAG,-0.115
19,ATACCTAG,-0.0735
20,AGTGTGTA,-0.101
21,GAGTTATC,0.182
22,CACCTTTA,-0.0458
23,GATTCAAA,0.052
24,CATCCCAC,-0.2
25,GATAGTGC,-0.105

row,Sequence,PBM E-score
1,ACTAATGG,-0.0197
2,ACGCCCCG,-0.006
3,CCTGACAC,-0.0732
4,CGGCGCCA,0.162
5,CAGAGCCG,0.238
6,AATCATGA,0.188
7,CCTGCTCC,0.00079
8,AGTTTGGC,-0.0507
9,TCAAGACA,-0.0118
10,CCAAGTCA,-0.153
11,AATAAAAG,0.0204
12,AAAAACTT,0.172
13,CAGATTCG,0.0724
14,ACCAGATG,-0.251
15,CCAGACCC,-0.262
16,CCGAGGGA,0.0207
17,CGGGCCCC,0.031
18,AGGCGCCA,-0.181
19,GGTGACAC,-0.104
20,GGGACTCA,-0.228
21,TCGCACGA,-0.0395
22,GCTTCATA,-0.0263
23,CACACGGG,-0.117
24,AAGCAAAA,0.121
25,CTGTGGGA,-0.307

row,Sequence,PBM E-score
1,GCGATAGC,-0.0771
2,TAGAGAAA,0.122
3,CTAATTTC,0.202
4,CAAATACA,-0.0425
5,CAAACAGG,-0.143
6,CAGCGGGC,-0.0514
7,CCGCCCCC,-0.145
8,AATACAAG,0.0699
9,CAGCTCCA,-0.224
10,CTCGAAAC,0.175
11,GGGTTAAA,-0.0167
12,AATGGAGC,-0.052
13,GGTCCGAC,0.153
14,CAGTTTCG,0.0474
15,CTTCTGTA,0.09
16,GCGACCGA,0.217
17,AACTTCCC,-0.15
18,ATGCTTGG,-0.131
19,CTACGAGA,-0.111
20,ATCGATCC,-0.119
21,CATGCGCG,-0.0219
22,AAGAAGTC,-0.0114
23,ATTTTTCA,0.169
24,AGAAGAGA,-0.0452
25,CCTCCCCG,-0.0343

row,Sequence,PBM E-score
1,TAACCGCA,0.127
2,CGATCAAA,0.0288
3,AGGAATTA,0.0841
4,ATTTCCTC,0.127
5,CATAGCGG,-0.132
6,AACTCGTA,0.0532
7,CGCTCTGC,0.016
8,AAGTTTGC,-0.0135
9,CGAGAAAG,0.105
10,CGAGCAGA,-0.0763
11,AACGCACA,-0.00084
12,ATCATGGA,-0.209
13,ATTTTCAG,0.157
14,TCGACAAA,0.147
15,GCTAGCCC,-0.292
16,ATCCTCTA,-0.0816
17,GGTAAGAA,-0.112
18,AGTAATGC,-0.00589
19,AACCGAGA,0.229
20,CACGCGGG,-0.0142
21,CGAGGCTC,-0.0916
22,GTAAACCA,-0.0788
23,CTAGCGGA,-0.103
24,ATTCGTAG,0.107
25,CTCCCCAC,-0.225

row,Sequence,PBM E-score
1,ACCTTACG,0.00591
2,GGATATTA,0.132
3,AGATGCAT,-0.0415
4,CAACTCAG,-0.0621
5,ATAGCTTA,0.153
6,AACGTCGG,-0.0362
7,CATGATGC,-0.0869
8,ATGGCTAG,-0.166
9,AGGAGACC,-0.273
10,GCAGCCCC,-0.173
11,ATGGCGCG,-0.0179
12,CGTGTGCC,-0.131
13,CCGTGCGC,0.145
14,ATCCAGAG,0.0238
15,GTGCAAAA,-0.00401
16,AGTCAGCG,-0.269
17,GAACCACC,-0.0106
18,TCCCCTAA,-0.202
19,TCGCAAGA,-0.0555
20,CTTGACGC,-0.0637
21,GTCGGAGA,0.158
22,ACTGCTGC,-0.138
23,CACCCAAA,-0.0529
24,CTGCGTAA,-0.0554
25,ACCAATAA,0.0431

row,Sequence,PBM E-score
1,CTTTTGCA,0.109
2,CCATAGGA,-0.197
3,TCCAGGAA,-0.0611
4,AAATTCAG,0.00208
5,AGCCGAAT,0.392
6,ACGTATTC,0.109
7,AACGCTGG,-0.166
8,CCTTATCG,0.121
9,GCTTCGCC,-0.208
10,AGGTACGC,-0.0351
11,ACCAGCTG,-0.116
12,ACTTGCGG,-0.042
13,TACGTACA,0.0341
14,AAGTCAGG,-0.0442
15,CATATCAA,0.21
16,GGCCCCAA,-0.222
17,CGCTAGGC,-0.193
18,AAGATAGA,-0.0904
19,CAGGTATA,-0.163
20,ACGCATAC,0.0179
21,ACCGTCGC,0.103
22,ACATGACT,-0.263
23,CGCAGTCA,-0.264
24,ACCTGTGG,-0.255
25,CTATTGCA,0.134

# Reprinted from the results shown for reference:
row,Sequence,PBM E-score
1,CTTTTGCA,0.109
2,CCATAGGA,-0.197
3,TCCAGGAA,-0.0611
4,AAATTCAG,0.00208
5,AGCCGAAT,0.392

# As entered above:
# GGGACTCA – PBM E-score: -0.228
# CTGTGGGA – PBM E-score: -0.307
# AGAAGAGA – PBM E-score: -0.0452

# Next part.

row,Sequence,PBM E-score
1,ACGGCTGC,0.0869
2,CTCAGGAG,-0.147
3,CAGACTAG,-0.219
4,CACCAGTG,-0.127
5,CCATCGAA,-0.0913
6,CGCTGGAC,-0.187
7,AGTTTCAC,0.0489
8,CAGTTGGG,-0.103
9,ATAATCGA,0.0906
10,ACTTCCGC,0.166
11,AGAGTGGG,-0.157
12,CAGTTCCC,0.109
13,ACATTAAT,0.164
14,CTTCAATC,0.137
15,CGGAGGGC,-0.0123
16,CCGTTGGA,-0.096
17,AGAGAGAG,-0.267
18,AACCTAGC,-0.0338
19,GATTGTCA,0.0895
20,ATAACCCA,0.0142
21,TCCGACGA,0.209
22,CAATTCCC,0.178
